# Measurements as given in PubChem BioAssay AID2685 (National Center for Advancing Translational Sciences (NCATS), 2010).
# The other results are listed elsewhere or left out. Shown are side measurements of this screen, not its main read-out; they come without a call. Most of these compounds were active or inconclusive in the main read-out, so they are no random draw. Words in brackets tell the shape of the fitted curve; partial curves, single points and poor fits give uncertain potencies.
# Experiment: qHTS Assay for Lipid Storage Modulators in Drosophila S3 Cells;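 as to cell number change: cells counted by Cell Tracker Red CMTPX staining in the red channel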
# Settings: BODIPY lipid droplet fluorescence, 18-24 h; for cell number change: measured here: cell count max response, cells fed with added oleic acid
# Summary of the method: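 Drosophila S3 cells loaded with oleic acid (400 uM, as added) and compounds at several concentrations; lipid droplets imaged by 488-nm laser-scanning cytometry, 500–530 nm intensity and object ratio to cell channel. Percent activity normalized to 20 uM Triacsin C.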
# [1] = measured here: cell number channel AC50, cells fed with added oleic acid
# [2] = measured here: lipid fluorescence (Fed channel) AC50, cells fed with added oleic acid
SMILES,cell number change [%],AC50 [1],AC50 [2]
O=C(c1ccc(NC(=O)C(c2ccccc2)c2ccccc2)cc1)c1ccc(C(=O)O)c(C(=O)O)c1,-22.1,,
CCOC(=O)c1ccc(N2C(=O)C3CCOc4ccccc4C32)cc1 (configuration not stated),-13.8,,
Cc1[nH]n(-c2ncc(-c3ccccc3)s2)c(=O)c1C(c1ccc(Cl)cc1)C(C#N)C#N (configuration not stated),-43.8,"16.4 µM [falling, single point]",
O=C(/C=C/c1ccc(F)cc1)NCC1(c2ccccc2)CCOCC1,14.9,,"1.64 µM [rising, partial curve]"
N=C(N)SCc1nc2ccccc2c(=O)n1-c1ccccc1Cl,-19.2,,
Cc1ccccc1/C=N\NC(=O)c1ccc(Cn2cccn2)o1,15.7,,"0.146 µM [rising, partial curve]"
O=c1cc(O)sc2ccccc12,,"1.84 µM [rising, partial curve]","2.06 µM [rising, partial curve]"
Cc1cc(Oc2ccccc2)nc(N2CCOCC2)n1,,"0.13 µM [falling, full curve, poor fit]","0.651 µM [falling, partial curve, poor fit]"
CCS(=O)(=O)N1CCC(c2nc(-c3ccc(C(F)(F)F)cc3)no2)CC1,-57.4,"11.6 µM [falling, partial curve, poor fit]","5.8 µM [falling, partial curve]"
FC(F)(F)c1cccc(-c2nc(COc3ccc(Cl)cc3Cl)no2)c1,28.1,,"29.1 µM [rising, single point]"
CN(C)C(=O)CN1CCN(c2nc3nonc3nc2N2CCCCC2)CC1,1.19,,"0.461 µM [rising, full curve, poor fit]"
Cn1c(Cc2cccs2)nnc1SCC(=O)Nc1ccc(C(N)=O)cc1,-43.6,"20.6 µM [falling, single point]","20.6 µM [rising, partial curve, poor fit]"
O=C(Cn1nc(-c2cccc([N+](=O)[O-])c2)c2ccccc2c1=O)NCC1CCCO1 (configuration not stated),38.2,"29.1 µM [rising, single point]",
COc1ccc(C(CNC(=O)Cc2ccccc2Cl)N2CCCCC2)cc1 (configuration not stated),16.7,,"29.1 µM [rising, single point]"
Cc1ccc(NC(=O)CN(C)C(=O)c2ccccc2Cc2ccccc2)cc1,-30.3,"2.91 µM [falling, full curve]","6.51 µM [falling, single point]"
O=C(CCN1CCOCC1)NNC(=S)NC(=O)c1ccc(Br)cc1,4.48,"4.11 µM [rising, single point]",
O=C(COc1ccc(N2CC(C(=O)O)CC2=O)cc1)Nc1cccc(C(F)(F)F)c1 (configuration not stated),0.132,,"4.11 µM [falling, full curve, poor fit]"
CCC1(C(=O)OC)NC(c2ccco2)C2C(=O)N(c3ccc(F)cc3)C(=O)C21 (configuration not stated),11.9,,"3.66 µM [rising, partial curve]"
CCCNc1nc2c(c(=O)n(C)c(=O)n2C)n1Cc1ccc(F)cc1,34.5,"4.11 µM [rising, full curve, poor fit]",
O=C(CCc1nc(-c2ccccc2)no1)NCCc1ccccc1,24.3,,"14.6 µM [rising, partial curve]"

SMILES,cell number change [%],AC50 [1],AC50 [2]
Cc1cc2cc(CNC(=O)Cc3ccc([N+](=O)[O-])cc3)ccc2n1C,31.4,"14.6 µM [rising, single point]","0.58 µM [rising, single point]"
O=C(Cn1cnc2sc3c(c2c1=O)CCCC3)NCC(=O)Nc1ccccc1F,32.1,,
O=C(Nc1ccc(N2CCN(C(=O)c3ccco3)CC2)cc1)c1ccccc1Br,8.5,,"6.51 µM [rising, single point]"
CN(CC(=O)Nc1nc2ccccc2s1)S(=O)(=O)c1ccc(Br)cc1,-14.1,"3.26 µM [rising, single point]","6.51 µM [rising, single point]"
CC(=O)Nc1ccc(S(=O)(=O)NC(CC(=O)NCCc2ccccc2)C(C)C)cc1 (configuration not stated),,,"0.164 µM [falling, full curve, poor fit]"
Cc1ccc(CN(CC(=O)NC(C)(C)C)C(=O)CNC(=O)c2cccs2)cc1,-14,,"11.6 µM [falling, partial curve]"
CCC(CC)NC(=O)/C=C/c1ccccc1Cl,52.3,"16.4 µM [rising, single point]","20.6 µM [rising, partial curve]"
CCCN1C(=O)CSC1=Nc1ccccc1,10.6,,
COc1ccc(OC)c(Nc2nc(N)nc(CSc3nnc(-c4ccncc4)o3)n2)c1,2.29,"2.91 µM [rising, single point]","3.26 µM [rising, partial curve]"
CCc1ccc(NC(=O)c2cnn3c(C(F)F)cc(C)nc23)cc1,2.83,,"0.13 µM [rising, single point]"
O=C1NC(CCc2ccccc2)C(=O)N1CCOc1ccccc1 (configuration not stated),,,"0.116 µM [rising, single point]"
O=C(Nc1cccc(F)c1)c1cc(S(=O)(=O)N2CCOCC2)ccc1N1CCCC1,42.1,"0.103 µM [rising, full curve, poor fit]","0.58 µM [falling, single point]"
CNC(=O)c1ccsc1NC(=O)c1ccc2c(c1)CCCC2,7.56,,"0.731 µM [rising, full curve]"
CCCCN(CCCNC(=O)c1ccc2nc(N3CCOCC3)sc2c1)Cc1ccccc1,,"0.13 µM [falling, full curve, poor fit]",
CCn1c(C)[n+](CCCS(=O)(=O)[O-])c2cc(Cl)c(Cl)cc21,2.38,,
O=S(=O)(Nc1ccccc1N1CCCCC1)c1ccc(F)cc1,-23.8,,"16.4 µM [falling, single point]"
Cn1c(SCC(=O)Nc2ccccc2Br)nnc1-c1cnccn1,-9.13,,
CCCCc1ccc(NC(=S)N2CCCC(C)C2)cc1 (configuration not stated),-40.7,,
COc1ccc(N(C(C)C(=O)NC2CCCCCC2)S(C)(=O)=O)cc1 (configuration not stated),,,"23.1 µM [falling, partial curve]"
CCOc1ccc(NC(=O)COC(=O)c2cccnc2)cc1,6.59,,"29.1 µM [falling, single point]"

# Sorted by molar mass (low to high): 3 of the compounds above
SMILES,cell number change [%],AC50 [1],AC50 [2]
O=c1cc(O)sc2ccccc12,,"1.84 µM [rising, partial curve]","2.06 µM [rising, partial curve]"
Cc1ccccc1/C=N\NC(=O)c1ccc(Cn2cccn2)o1,15.7,,"0.146 µM [rising, partial curve]"
FC(F)(F)c1cccc(-c2nc(COc3ccc(Cl)cc3Cl)no2)c1,28.1,,"29.1 µM [rising, single point]"

# Next compounds follow:

SMILES,cell number change [%],AC50 [1],AC50 [2]
O=C1CC(c2ccc(S(=O)(=O)Nc3cc(C(F)(F)F)cc(C(F)(F)F)c3)cc2)CN1 (configuration not stated),32.6,"18.4 µM [rising, partial curve, poor fit]",
COc1cc(/C=C(\C#N)C(=O)Nc2cccc(C(=O)O)c2)ccc1OCc1ccc(Cl)cc1,-4.76,"0.326 µM [rising, partial curve, poor fit]",
N#CC1=C(N)OC2=C(C(=O)CCC2)C12CCN(C(=O)OCc1ccccc1)CC2,-10.6,,"1.64 µM [rising, partial curve]"
Cc1ccc2c(c1)nnn2C1CCN(CC(=O)Nc2ccccc2N2CCOCC2)CC1,-21.9,,"16.4 µM [falling, single point]"
CC(C(=O)Nc1ccc(OCc2ccccc2)cc1)N1CCCC1 (configuration not stated),1.13,"0.00461 µM [falling, full curve, poor fit]","0.00461 µM [falling, full curve, poor fit]"
O=C(OCC(=O)N1CCCCC1)c1c[nH]c2ccccc12,-3.16,,
CCOCCCn1c(=S)[nH]c2cc(C(=O)N3CCC(C(N)=O)CC3)ccc2c1=O,-43.3,"4.11 µM [falling, full curve, poor fit]","2.91 µM [falling, partial curve, poor fit]"
N#Cc1cnc(SCC(=O)NNC(=O)COc2cccc3ccccc23)nc1N,23.6,,"0.259 µM [falling, partial curve, poor fit]"
CCc1ccc(NC(=O)CSc2nnc(CNC(=O)c3ccco3)o2)cc1,11.2,,
O=C(Nc1nnc(C2CC2)s1)C1COc2ccccc2O1 (configuration not stated),23,,"0.00461 µM [rising, full curve, poor fit]"
Cc1cccc(-n2nnnc2SCC(=O)c2cc(C)n(Cc3ccco3)c2C)c1,-32,,
CCn1c(-c2ccc(F)cc2)n[nH]c1=S,27.6,,"29.1 µM [rising, single point]"
O=C(CN1C(=O)NC2(CCCC2)C1=O)Nc1ccc(Cl)cc1F,3.95,,"5.62 µM [rising, single point]"
CCOC(=O)c1sc(NC(=O)CSc2nnnn2-c2ccccc2)nc1C,2.91,,"1.16 µM [rising, full curve, poor fit]"
Nc1nnc(SCc2cn3cc(Cl)ccc3n2)s1,,"6.51 µM [rising, partial curve, poor fit]",
CCN(CC)C(=S)SCC(=O)Nc1ncc2c(n1)CCCC2=O,18.2,,"1.3 µM [rising, full curve, poor fit]"
O=C(c1cnn2c(C(F)(F)F)cc(-c3ccccc3)nc12)N1CCCc2ccccc21,,,"2.06 µM [rising, partial curve]"
O=C(CSCc1cccc(F)c1)N1CCN(c2ccccc2)CC1,,"1.84 µM [rising, partial curve, poor fit]",
COc1ccc(C(=O)CN2C(=O)c3ccccc3C2=O)c(OC)c1,-14.4,,"5.17 µM [falling, partial curve, poor fit]"
COC(=O)c1sc(NC(=O)c2oc3ccccc3c2C)nc1C,5.61,,"0.116 µM [rising, full curve]"
